Data taken from PubChem BioAssay AID504648 (National Center for Advancing Translational Sciences (NCATS), 2011).
In all, about 390,000 compounds went through this assay and about 610 (0.16%) were called active. Inconclusive results, whose numbers are uncertain, are shown with a selection of clear calls. Calls come from the whole dose curve; as a rule, active = well fitted inhibition curve with a large enough effect; inconclusive = small, poorly fitted or top-dose-only effect, or effect the other way, or another doubt; inactive = no such curve, though single readings can be large or run the other way. A potency beside an inconclusive call is a rough fit, not a confirmed value.

Assay: Nrf2 qHTS screen for inhibitors: counterscreen for cytotoxicity
Details: A549 ARE-Fluc cells, CellTiter-Fluor viability, 18-24 h; series mostly up to 46 µM
Outline: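 Cytotoxicity counterscreen: CellTiter-Fluor fluorescence was measured in A549 ARE_Fluc cells after 18-24 h of compound exposure in a concentration series. The subsequent BugLite luminescent read reports ARE-luciferase activity.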
Potency is the fitted concentration of half-maximal effect.

Structure (SMILES)	Potency
CCCCOC(=O)c1c(C)oc2ccc(NS(=O)(=O)c3ccc4c5c(cccc35)C(=O)N4)cc12	inactive
CCCCCCC[C@@H](C/C=C/CCC(=O)N(C)C/C(=C/Cl)C/C(=C\C(=O)N1CC(OC)=CC1=O)OC)OC	inconclusive: 2.31 µM [falling, partial curve, poor fit]
COc1ccc(S(=O)(=O)NCC(c2ccco2)N2CCc3ccccc3C2)cc1 (centres undefined)	inconclusive: 23.1 µM [falling, partial curve, poor fit]
COc1cc2c(O)c3c(c(-c4ccc5c(c4)OCO5)c2cc1OC)C(=O)OC3	active: 18.4 µM
CCOC(=O)c1cc(S(=O)(=O)N(C)Cc2ccccc2)cn1C	inactive
Cc1cc(Cl)ccc1NC(=S)Nc1cccnc1	inconclusive: 7.31 µM [falling, partial curve, poor fit]
CCCn1nc([N+](=O)[O-])c(C(C#N)c2nc3ccccc3o2)c(Cl)c1=O (centres undefined)	inconclusive: 23.1 µM [falling, single point]
COC(=O)c1ccccc1NC(=O)c1cccc(NC(=O)CSCc2ccccc2)c1C	inconclusive: 23.1 µM [falling, partial curve, poor fit]
O=C(C/C=N/OCc1ccc(F)cc1Cl)c1cnc(-c2ccccc2)s1	inconclusive: 7.31 µM [falling, partial curve, poor fit]
CCn1cc(C(=O)NCc2ccccc2)c(=O)c2cc(F)c(N3CCN(C(=O)c4ccco4)CC3)cc21	inconclusive: 32.6 µM [falling, partial curve, poor fit]
CC(=O)c1c(N2CCOCC2)[nH]c(-c2ccccc2)nc1=S	inconclusive: 16.4 µM [falling, single point]
CCC1(CC)Cc2ccccc2-c2nc(NCCO)[nH]c(=O)c21	inconclusive: 25.9 µM [falling, single point]
CCN(CC)C(=O)C1CCCN(C(=O)c2cc(COc3ccc4ncccc4c3)on2)C1 (centres undefined)	inactive
CCCCN(CCCC)CC(O)Cn1cc(/C=C/C(=O)c2ccccc2)c2ccccc21 (centres undefined)	inconclusive: 29.1 µM [falling, single point]
COc1ccc(/C=N/NC(=O)c2nc(-c3ccccc3)n(-c3ccccc3)n2)cc1	inactive
COC(=O)c1cc(NC(=O)c2ccc(Cn3cc(Cl)cn3)o2)cc(C(=O)OC)c1	inconclusive: 14.6 µM [falling, partial curve, poor fit]
CCN1CCN(C(=O)c2cc3cc4ccc(OC)cc4nc3s2)CC1	inconclusive: 6.51 µM [activator, full curve, poor fit]
CCOc1c(Cl)cc(/C=C/C(=O)N(CC)CC(=O)NCc2cccs2)cc1OC	inconclusive: 16.4 µM [falling, partial curve, poor fit]
CCN1CCCC1CNC(=O)C(=O)Nc1ccccc1OC (centres undefined)	inconclusive: 11.6 µM [activator, partial curve]
COc1ccc(C(=O)CSc2nnc(CNC(=O)c3ccc(S(=O)(=O)N(C)C)cc3)o2)cc1	inactive

Some of the entries above, reformatted:
Structure (SMILES) | Potency
COc1ccc(S(=O)(=O)NCC(c2ccco2)N2CCc3ccccc3C2)cc1 (centres undefined) | inconclusive: 23.1 µM [falling, partial curve, poor fit]
COc1cc2c(O)c3c(c(-c4ccc5c(c4)OCO5)c2cc1OC)C(=O)OC3 | active: 18.4 µM

Continuation:

Structure (SMILES)	Potency
CC[C@]12c3[nH]c4cc(CCC(=O)N(C)C)ccc4c3CCN1C(=O)[C@@H](CC(=O)NCC13CC4CC(CC(C4)C1)C3)C[C@@H]2C(=O)N1CCN(C(=O)c2ccco2)CC1	inactive
Cc1cc(C)n(CCc2nc3c4ccccc4nc(N4CCN(c5ccccc5F)CC4)n3n2)n1	inactive
CCOc1ccc(-c2nnc(SCC(=O)NC(C)(C)C)nc2-c2ccc(OCC)c(OC)c2)cc1OC	inactive
O=C(C1CCN(S(=O)(=O)c2ccc(Br)s2)CC1)N1CCc2ccccc21	inconclusive: 29.1 µM [falling, partial curve, poor fit]
CCC(C)N(CCNC(=O)c1ccc2c(c1)NC(=O)c1ccccc1S2)C1CCCCC1 (centres undefined)	inconclusive: 18.4 µM [falling, partial curve, poor fit]
O=C(Nc1ccc(S(=O)(=O)NC2=NCCCCC2)cc1)c1ccc([N+](=O)[O-])s1	inconclusive: 23.1 µM [falling, single point]
CCOc1cc(/C=C2\SC(=N)N(c3nccs3)C2=O)ccc1OCCN1CCOCC1	active: 20.6 µM
Cc1ccc(NS(=O)(=O)c2ccc3[nH]c4c(c3c2)CCCCCC4)cc1Cl	inconclusive: 29.1 µM [falling, single point]
Cc1cccc(NC(=S)N=Nc2c(O)[nH]c3ccccc23)c1	inactive
CCSc1nnc(-c2cccnc2)n1Cc1ccco1	inconclusive: 20.6 µM [activator, partial curve, poor fit]
O=Cc1cc(N=Nc2ccc(S(=O)(=O)O)cc2)ccc1O	inconclusive: 7.31 µM [falling, single point]
Cc1c(C(c2ccc(N(C)C)cc2)c2c(C)n(C)n(-c3ccccc3)c2=O)c(=O)n(-c2ccccc2)n1C	inconclusive: 7.31 µM [falling, partial curve, poor fit]
O=C(O)CCC(=O)Nc1sc2c(c1C(=O)Nc1cccc3ccccc13)CCCCC2	inactive
N#C/C(=C\c1cc([N+](=O)[O-])c(N2CCCCC2)cc1N1CCCCC1)c1nn(-c2ccccc2)c(N)c1C#N	inconclusive: 23.1 µM [falling, partial curve, poor fit]
CCN(c1ccc(OC)cc1)S(=O)(=O)c1nnc(NC(=O)c2ccccc2Cl)s1	inconclusive: 23.1 µM [falling, partial curve, poor fit]
CCOC(=O)c1ccccc1NS(=O)(=O)c1ccccc1	inconclusive: 29.1 µM [falling, single point]
CC(=O)C1=C(C)NC(SCC(=O)c2cc(Cl)ccc2Cl)=C(C#N)C1c1ccco1 (centres undefined)	inconclusive: 4.61 µM [falling, single point]
CC(C)NC(=O)c1ccccc1-c1ccccc1	inconclusive: 2.31 µM [activator, partial curve, poor fit]
CC(=O)Oc1c(C(=O)c2nnc(C)o2)c(=O)n(Cc2ccccc2)c2ccccc12	inconclusive: 29.1 µM [falling, partial curve, poor fit]
